± gives the standard deviation of the averaged measurements. Values are relative to the signal before dosing, not to a vehicle control; the signal also falls without drug.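 Fibroblast labels denote human fibroblasts, mainly primary ones from uterus (C12385, HUF), lung (H6013), bone (Hs27A), adrenal (HADF) and skin (WS1), plus mammary HMF and breast cancer-associated Hs343T. Cancer cells are basal-like or mesenchymal-like triple-negative breast cancer lines. A hit is a response shift exceeding 3x replicate standard deviation. The tissue of the other fibroblasts is not given here.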
Test system: BT20
Test: relative JC-1 red fluorescence (viability) vs pre-drug, coculture with fibroblast (fraction); higher = more viable cancer cells
Method: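 JC-1 labelled TNBC cells cocultured 1:1 (1,500 cells each) with CellTrace Violet stained primary or stromal fibroblasts in 384-well plates in FluoroBrite medium, treated with one of 42 anticancer drugs at 0.1, 1, 10 or 100 uM. JC-1 red fluorescence (mitochondrial integrity in cancer cells only) was read by plate reader every 8 h for 72 h. Values are normalised to each well's pre-drug value. The stock of one drug was tenfold lower, so its dose labels may be too high.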

CCN(CC)CCNC(=O)c1c(C)[nH]c(/C=C2\C(=O)Nc3ccc(F)cc32)c1C [Sunitinib]
relative JC-1 red fluorescence
Settings	8 h	16 h	24 h	32 h	40 h	48 h	56 h	64 h	72 h
10 µM, coculture fibroblast: C12385	0.947 ± 0.029	0.924 ± 0.039	0.894 ± 0.063	0.847 ± 0.041	0.8 ± 0.035	0.758 ± 0.034	0.742 ± 0.022	0.708 ± 0.025	0.68 ± 0.034
10 µM, coculture fibroblast: H6013	0.71 ± 0.018	0.9 ± 0.1	0.806 ± 0.018	0.714 ± 0.079	0.594 ± 0.044	0.496 ± 0.045	0.453 ± 0.0063	0.366 ± 0.0076	0.332 ± 0.016
10 µM, coculture fibroblast: H6019	0.899 ± 0.0097	0.91 ± 0.023	0.928 ± 0.065	0.905 ± 0.1	0.891 ± 0.12	0.885 ± 0.14	0.88 ± 0.17	0.865 ± 0.19	0.73 ± 0.03
10 µM, coculture fibroblast: H6076	0.824 ± 0.13	0.85 ± 0.062	0.873 ± 0.017	0.71 ± 0.059	0.578 ± 0.075	0.504 ± 0.067	0.442 ± 0.061	0.413 ± 0.057	0.352 ± 0.043
10 µM, coculture fibroblast: H6231	0.752 ± 0.045	0.707 ± 0.021	0.817 ± 0.046	0.656 ± 0.048	0.557 ± 0.028	0.489 ± 0.0079	0.388 ± 0.019	0.333 ± 0.022	0.27 ± 0.024
10 µM, coculture fibroblast: HADF	0.73 ± 0.03	0.963 ± 0.013	0.787 ± 0.029	0.719 ± 0.043	0.601 ± 0.097	0.51 ± 0.055	0.456 ± 0.051	0.413 ± 0.032	0.352 ± 0.028
10 µM, coculture fibroblast: HCFa	0.887 ± 0.15	0.858 ± 0.037	0.899 ± 0.12	0.891 ± 0.074	0.9077 ± 0.0047	0.86 ± 0.049	0.859 ± 0.029	0.886 ± 0.043	0.835 ± 0.017
10 µM, coculture fibroblast: HCPF	0.819 ± 0.061	0.814 ± 0.028	0.806 ± 0.075	0.664 ± 0.11	0.551 ± 0.11	0.471 ± 0.12	0.394 ± 0.083	0.349 ± 0.087	0.309 ± 0.068
10 µM, coculture fibroblast: HHSteC	0.878 ± 0.024	0.979 ± 0.011	0.806 ± 0.046	0.679 ± 0.061	0.535 ± 0.059	0.443 ± 0.062	0.357 ± 0.051	0.316 ± 0.021	0.262 ± 0.0091
10 µM, coculture fibroblast: HMF	0.847 ± 0.11	0.868 ± 0.012	0.883 ± 0.14	0.938 ± 0.034	0.881 ± 0.031	0.839 ± 0.036	0.778 ± 0.078	0.725 ± 0.092	0.646 ± 0.13
10 µM, coculture fibroblast: HPFa	0.967 ± 0.011	0.901 ± 0.074	0.938 ± 0.017	0.922 ± 0.085	0.9 ± 0.1	0.873 ± 0.12	0.842 ± 0.1	0.807 ± 0.11	0.778 ± 0.11
10 µM, coculture fibroblast: HUF	0.9499 ± 0.0063	0.908 ± 0.014	0.8959 ± 0.0066	0.845 ± 0.016	0.817 ± 0.048	0.791 ± 0.07	0.762 ± 0.091	0.719 ± 0.12	0.681 ± 0.14
10 µM, coculture fibroblast: Hs5	0.795 ± 0.029	0.862 ± 0.14	0.838 ± 0.056	0.724 ± 0.087	0.743 ± 0.3	0.71 ± 0.3	0.669 ± 0.31	0.629 ± 0.31	0.594 ± 0.34
10 µM, coculture fibroblast: Hs27A	0.897 ± 0.048	0.762 ± 0.018	0.905 ± 0.015	0.835 ± 0.12	0.769 ± 0.31	0.622 ± 0.21	0.53 ± 0.17	0.446 ± 0.12	0.384 ± 0.1
10 µM, coculture fibroblast: Hs343T	0.817 ± 0.072	0.773 ± 0.017	0.903 ± 0.054	0.921 ± 0.074	0.864 ± 0.084	0.816 ± 0.1	0.757 ± 0.086	0.719 ± 0.072	0.677 ± 0.066
10 µM, coculture fibroblast: WS1	0.919 ± 0.024	0.895 ± 0.048	0.885 ± 0.079	0.852 ± 0.099	0.824 ± 0.12	0.808 ± 0.12	0.792 ± 0.13	0.778 ± 0.14	0.777 ± 0.14
100 µM, coculture fibroblast: C12385	0.342 ± 0.14	0.167 ± 0.12	0.158 ± 0.12	0.123 ± 0.1	0.0907 ± 0.087	0.0924 ± 0.087	0.0685 ± 0.077	0.0527 ± 0.067	0.0703 ± 0.035
100 µM, coculture fibroblast: H6013	0.19 ± 0.036	0.135 ± 0.029	0.148 ± 0.024	0.11 ± 0.029	0.0983 ± 0.02	0.0935 ± 0.023	0.0882 ± 0.022	0.0766 ± 0.014	0.0576 ± 0.019
100 µM, coculture fibroblast: H6019	0.24 ± 0.076	0.175 ± 0.068	0.187 ± 0.061	0.153 ± 0.061	0.137 ± 0.057	0.137 ± 0.067	0.115 ± 0.064	0.105 ± 0.06	0.0996 ± 0.054
100 µM, coculture fibroblast: H6076	0.491 ± 0.12	0.337 ± 0.041	0.308 ± 0.034	0.302 ± 0.035	0.289 ± 0.03	0.269 ± 0.021	0.25 ± 0.025	0.236 ± 0.011	0.22 ± 0.015
100 µM, coculture fibroblast: H6231	0.467 ± 0.13	0.317 ± 0.036	0.283 ± 0.025	0.287 ± 0.034	0.263 ± 0.022	0.253 ± 0.024	0.212 ± 0.021	0.226 ± 0.0052	0.203 ± 0.0067
100 µM, coculture fibroblast: HADF	0.296 ± 0.053	0.18 ± 0.079	0.178 ± 0.1	0.144 ± 0.089	0.122 ± 0.083	0.123 ± 0.08	0.103 ± 0.077	0.0953 ± 0.083	0.0706 ± 0.076
100 µM, coculture fibroblast: HCFa	0.33 ± 0.081	0.181 ± 0.0069	0.185 ± 0.015	0.147 ± 0.024	0.128 ± 0.031	0.133 ± 0.047	0.123 ± 0.051	0.108 ± 0.05	0.0831 ± 0.053
100 µM, coculture fibroblast: HCPF	0.427 ± 0.098	0.333 ± 0.079	0.324 ± 0.089	0.316 ± 0.078	0.306 ± 0.085	0.289 ± 0.069	0.274 ± 0.07	0.268 ± 0.06	0.244 ± 0.062
100 µM, coculture fibroblast: HHSteC	0.261 ± 0.0048	0.174 ± 0.06	0.188 ± 0.065	0.141 ± 0.068	0.117 ± 0.066	0.105 ± 0.064	0.0911 ± 0.068	0.077 ± 0.067	0.0539 ± 0.069
100 µM, coculture fibroblast: HMF	0.374 ± 0.07	0.391 ± 0.024	0.397 ± 0.037	0.41 ± 0.062	0.403 ± 0.094	0.394 ± 0.11	0.387 ± 0.12	0.365 ± 0.13	0.325 ± 0.13
100 µM, coculture fibroblast: HPFa	0.485 ± 0.12	0.222 ± 0.0043	0.221 ± 0.017	0.186 ± 0.022	0.165 ± 0.014	0.154 ± 0.028	0.146 ± 0.032	0.131 ± 0.04	0.101 ± 0.035
100 µM, coculture fibroblast: HUF	0.415 ± 0.0089	0.208 ± 0.098	0.203 ± 0.14	0.159 ± 0.13	0.14 ± 0.12	0.123 ± 0.13	0.109 ± 0.12	0.0941 ± 0.12	0.0863 ± 0.11
100 µM, coculture fibroblast: Hs5	0.346 ± 0.04	0.255 ± 0.084	0.226 ± 0.078	0.211 ± 0.071	0.193 ± 0.061	0.173 ± 0.061	0.152 ± 0.052	0.135 ± 0.029	0.131 ± 0.03
100 µM, coculture fibroblast: Hs27A	0.431 ± 0.12	0.338 ± 0.042	0.404 ± 0.11	0.375 ± 0.083	0.349 ± 0.084	0.374 ± 0.093	0.37 ± 0.095	0.369 ± 0.088	0.355 ± 0.078
100 µM, coculture fibroblast: Hs343T	0.377 ± 0.18	0.228 ± 0.11	0.214 ± 0.11	0.206 ± 0.12	0.206 ± 0.12	0.189 ± 0.1	0.185 ± 0.11	0.17 ± 0.095	0.159 ± 0.09
100 µM, coculture fibroblast: WS1	0.176 ± 0.13	0.14 ± 0.14	0.149 ± 0.14	0.114 ± 0.13	0.0924 ± 0.11	0.0928 ± 0.11	0.0734 ± 0.1	0.0829 ± 0.071	0.0786 ± 0.069

Reference: the supplement of paper PMC6078165
